PubChem BioAssay AID504804, Drosophila RNAi Screening Center – 2011

Purpose: 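dsRNAs that improve Kc cell survival under doxorubicin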 (primary screen)
System: Drosophila Kc cells
Reagents: long dsRNA against Drosophila genes, 0.5 µg dsRNA per well
Timing: 96 h (48 h knock-down, then 48 h drug)
Challenge: doxorubicin 5 µg/ml for 48 h, added 48 h after dsRNA
Detection: 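Viability measured as cellular ATP by luminescence after 48 h knock-down then 48 h doxorubicin at 5 µg/ml; unnormalised plate counts for each replicate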
Reading the numbers: raw ATP luminescence: higher = more viable cells, protection from doxorubicin
Rule for the call: 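z-score of 2 or more over plate mean in both duplicates, retained only when retests and separate dsRNAs confirm the protection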
In all, the deposit lists about 19,000 reagents; below is an unselected part of those with a known target gene and a result. Of all reagents, 47 (0.25%) got an active call. 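Signals are raw, not normalised; exact z-scores behind calls not deposited; actives needed confirmation, so some wells reaching 2 SD are inactive.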 The numbers tell different reagents against one gene apart.

"raw ATP luminescence, replicate 1","raw ATP luminescence, replicate 2",call,Target gene,dsRNA no.
26020,25860,inactive,ND-B14.5B,1
76673,58940,inactive,CG8708,1
3.37e5,3.09e5,inactive,CG42258,1
1.04e5,1.09e5,inactive,CG42258,2
1.84e5,1.74e5,inactive,CG31077,1
17670,17440,inactive,Grip,1
36270,35970,inactive,Grip,2
44313,75743,inactive,CG1598,1
46080,42390,inactive,Vha36-3,1
50903,71997,inactive,Trpgamma,1
49137,42487,inactive,cal1,1
21020,21800,inactive,E(spl)m2-BFM,1
63533,73657,inactive,CG3107,1
59173,67560,inactive,Roe1,1
65917,81793,inactive,CG15258,1
79870,98753,inactive,CG32170,1
53770,39860,inactive,Alg1,1
3.01e5,3.09e5,inactive,CG32533,1
63400,56270,inactive,Sirt6,1
3.09e5,3.49e5,inactive,Hmr,1
69707,59917,inactive,lectin-37Db,1
65840,58870,inactive,GILT3,1
59753,61320,inactive,Debcl,1
52620,72050,inactive,CG14300,1
43933,19213,inactive,CG31211,1
54653,56683,inactive,CG31211,2
3.37e5,3.22e5,inactive,Rab40,1
42100,46920,inactive,NAAT1,1
2.78e5,2.37e5,inactive,CG33552,1
2.73e5,2.73e5,inactive,CG31606,1
41683,56723,inactive,ppk12,1
68210,70843,inactive,UK114,1
2.36e5,2.13e5,inactive,SK,1
35690,44120,inactive,SK,2
34150,34510,inactive,SK,3
36380,44190,inactive,SK,4
29823,54530,inactive,CG8736,1
55870,30827,inactive,CG31460,1
59597,44860,inactive,Grl58a,1
47517,52433,inactive,CG33099,1
1.96e5,2.04e5,inactive,CG34238,1
60413,62023,inactive,Su(z)12,1
68080,48240,inactive,dj-1beta,1
63430,62677,inactive,Rab4,1
49700,45520,inactive,janB,1
48540,54920,inactive,CG18598,1
65600,48070,inactive,CG5815,1
81623,86047,inactive,Zmynd10,1
34100,30450,inactive,AdoR,1
64140,60737,inactive,CG9396,1
1.11e5,64280,inactive,CG8460,1
55297,51603,inactive,CG9458,1
28300,25317,inactive,mbf1,1
37467,1.08e5,inactive,Spn42Da,1
52573,53173,inactive,Sema1b,1
44160,26157,inactive,Cap-H2,1
72630,74403,inactive,Surf1,1
41740,41993,inactive,Surf1,2
74383,77533,inactive,CG12288,1
58987,56397,inactive,Nmdar1,1
64580,66780,inactive,Nmdar1,2
83063,62390,inactive,l(2)37Cd,1
83570,83180,inactive,CG7362,1
3.23e5,2.64e5,inactive,Myo10A,1
3.23e5,3.46e5,inactive,Myo10A,2
2.26e5,2.07e5,inactive,Tm1,1
2.62e5,2.10e5,inactive,Tm1,2
48580,18963,inactive,Tm1,3
29080,66440,inactive,didum,1
23993,19463,inactive,RpL40,1
3.17e5,3.34e5,inactive,CG1722,1
27573,28503,inactive,Myo28B1,1
80483,78720,inactive,Klp64D,1
42500,42323,inactive,cav,1
83400,89520,inactive,CG9920,1
77170,75193,inactive,CG10947,1
51140,47130,inactive,CG2528,1
59590,56840,inactive,Nil,1
81370,1.22e5,inactive,conu,1
46450,35040,inactive,Ugt49C1,1
11320,15150,inactive,CG43689,1
62017,44737,inactive,Vps28,1
72420,40030,inactive,CG13365,1
49430,63963,inactive,Csl4,1

Laid out differently: entries from further up.
Alg1
- raw ATP luminescence, replicate 1: 53770
- raw ATP luminescence, replicate 2: 39860
- call: inactive

CG32533
- raw ATP luminescence, replicate 1: 3.01e5
- raw ATP luminescence, replicate 2: 3.09e5
- call: inactive

Sirt6
- raw ATP luminescence, replicate 1: 63400
- raw ATP luminescence, replicate 2: 56270
- call: inactive

Hmr
- raw ATP luminescence, replicate 1: 3.09e5
- raw ATP luminescence, replicate 2: 3.49e5
- call: inactive

lectin-37Db
- raw ATP luminescence, replicate 1: 69707
- raw ATP luminescence, replicate 2: 59917
- call: inactive

GILT3
- raw ATP luminescence, replicate 1: 65840
- raw ATP luminescence, replicate 2: 58870
- call: inactive

Debcl
- raw ATP luminescence, replicate 1: 59753
- raw ATP luminescence, replicate 2: 61320
- call: inactive

CG14300
- raw ATP luminescence, replicate 1: 52620
- raw ATP luminescence, replicate 2: 72050
- call: inactive

CG31211 #1
- raw ATP luminescence, replicate 1: 43933
- raw ATP luminescence, replicate 2: 19213
- call: inactive
